Test results published in PMC6395066.
No constants are given. Whether binding was seen depends on the method and setting. Binding calls can cover weak binding; strength is not graded here. Where a sequence is shown, tags or fusion partners need not be part of it.

Biological target: T1, myc-tagged full-length Dystroglycan (UniProt Q62165)
T1 sequence: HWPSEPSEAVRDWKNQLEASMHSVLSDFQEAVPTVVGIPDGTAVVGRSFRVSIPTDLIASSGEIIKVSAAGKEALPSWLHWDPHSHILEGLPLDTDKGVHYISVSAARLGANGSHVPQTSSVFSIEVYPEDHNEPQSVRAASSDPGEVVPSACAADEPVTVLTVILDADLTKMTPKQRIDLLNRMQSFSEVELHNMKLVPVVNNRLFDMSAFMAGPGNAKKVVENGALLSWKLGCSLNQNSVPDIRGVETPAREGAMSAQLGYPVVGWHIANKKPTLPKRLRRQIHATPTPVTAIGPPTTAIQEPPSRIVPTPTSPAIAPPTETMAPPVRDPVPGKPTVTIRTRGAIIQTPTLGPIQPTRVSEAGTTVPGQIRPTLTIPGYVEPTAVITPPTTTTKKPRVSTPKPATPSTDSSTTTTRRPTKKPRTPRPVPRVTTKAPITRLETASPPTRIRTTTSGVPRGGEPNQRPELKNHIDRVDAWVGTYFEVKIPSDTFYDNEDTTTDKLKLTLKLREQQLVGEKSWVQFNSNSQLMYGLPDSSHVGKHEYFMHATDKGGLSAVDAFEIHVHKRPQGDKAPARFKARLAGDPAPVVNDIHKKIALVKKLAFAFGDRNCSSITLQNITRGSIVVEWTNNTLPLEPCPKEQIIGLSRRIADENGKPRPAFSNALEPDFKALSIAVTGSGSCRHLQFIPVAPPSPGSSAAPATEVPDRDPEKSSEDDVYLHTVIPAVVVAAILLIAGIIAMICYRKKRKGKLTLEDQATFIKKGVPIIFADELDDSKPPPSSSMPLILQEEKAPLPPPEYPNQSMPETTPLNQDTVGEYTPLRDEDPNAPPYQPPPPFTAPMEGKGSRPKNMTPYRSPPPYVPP
Experiment: AP-tagged ligand binding to live cells; COS7 cells transfected with myc-tagged full-length Dystroglycan, 5 nM AP-tagged ligand at 37° for 30 min, bound AP developed with BCIP/NBT

Substance | binding
Alkaline Phosphatase-tagged Celsr3-LG1 domain (M. musculus) (domain or fragment) | binds
Alkaline Phosphatase-tagged Celsr3-LG2 domain (M. musculus) (domain or fragment) | no binding (tested: 5 nM)
